Laboratory results published in patent publication US20120231497A1 (N.V. Organon, priority 2006, published 2012).
* marks the point of attachment. Boc = CC(C)(C)OC(=O)*

Experiment: peptide synthesis
Details: late stage modification step

Boc-GFFL-OH
step yield: >95% yield
